Here are results for 39 targets from the supplement of paper PMC12819154, “High-throughput peptide-centric local stability assay extends protein–ligand identification to membrane proteins, tissues and bacteria” (Nature Structural & Molecular Biology, 2025).

Amino acid sequences for entries named in this document (tags omitted). A change or cut given only in a name is not applied to a line headed by its entry.
UniProt Q9Y6I4: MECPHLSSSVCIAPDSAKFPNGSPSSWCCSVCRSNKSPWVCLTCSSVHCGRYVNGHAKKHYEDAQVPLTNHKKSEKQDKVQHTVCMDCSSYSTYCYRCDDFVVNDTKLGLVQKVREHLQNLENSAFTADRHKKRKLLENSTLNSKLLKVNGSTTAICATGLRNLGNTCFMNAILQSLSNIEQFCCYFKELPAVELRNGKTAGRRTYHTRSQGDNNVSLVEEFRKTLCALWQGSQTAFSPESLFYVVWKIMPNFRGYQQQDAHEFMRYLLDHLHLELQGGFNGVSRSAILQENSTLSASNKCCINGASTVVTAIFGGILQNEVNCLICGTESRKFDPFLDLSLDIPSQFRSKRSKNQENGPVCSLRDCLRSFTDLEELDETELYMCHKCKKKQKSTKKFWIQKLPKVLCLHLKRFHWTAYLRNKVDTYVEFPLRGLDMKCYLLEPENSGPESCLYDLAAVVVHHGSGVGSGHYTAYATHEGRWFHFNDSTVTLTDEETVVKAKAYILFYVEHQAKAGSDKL
UniProt Q9Y5J7: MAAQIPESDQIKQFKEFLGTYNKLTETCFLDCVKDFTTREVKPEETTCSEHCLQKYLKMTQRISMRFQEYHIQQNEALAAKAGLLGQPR
UniProt Q9Y4C8: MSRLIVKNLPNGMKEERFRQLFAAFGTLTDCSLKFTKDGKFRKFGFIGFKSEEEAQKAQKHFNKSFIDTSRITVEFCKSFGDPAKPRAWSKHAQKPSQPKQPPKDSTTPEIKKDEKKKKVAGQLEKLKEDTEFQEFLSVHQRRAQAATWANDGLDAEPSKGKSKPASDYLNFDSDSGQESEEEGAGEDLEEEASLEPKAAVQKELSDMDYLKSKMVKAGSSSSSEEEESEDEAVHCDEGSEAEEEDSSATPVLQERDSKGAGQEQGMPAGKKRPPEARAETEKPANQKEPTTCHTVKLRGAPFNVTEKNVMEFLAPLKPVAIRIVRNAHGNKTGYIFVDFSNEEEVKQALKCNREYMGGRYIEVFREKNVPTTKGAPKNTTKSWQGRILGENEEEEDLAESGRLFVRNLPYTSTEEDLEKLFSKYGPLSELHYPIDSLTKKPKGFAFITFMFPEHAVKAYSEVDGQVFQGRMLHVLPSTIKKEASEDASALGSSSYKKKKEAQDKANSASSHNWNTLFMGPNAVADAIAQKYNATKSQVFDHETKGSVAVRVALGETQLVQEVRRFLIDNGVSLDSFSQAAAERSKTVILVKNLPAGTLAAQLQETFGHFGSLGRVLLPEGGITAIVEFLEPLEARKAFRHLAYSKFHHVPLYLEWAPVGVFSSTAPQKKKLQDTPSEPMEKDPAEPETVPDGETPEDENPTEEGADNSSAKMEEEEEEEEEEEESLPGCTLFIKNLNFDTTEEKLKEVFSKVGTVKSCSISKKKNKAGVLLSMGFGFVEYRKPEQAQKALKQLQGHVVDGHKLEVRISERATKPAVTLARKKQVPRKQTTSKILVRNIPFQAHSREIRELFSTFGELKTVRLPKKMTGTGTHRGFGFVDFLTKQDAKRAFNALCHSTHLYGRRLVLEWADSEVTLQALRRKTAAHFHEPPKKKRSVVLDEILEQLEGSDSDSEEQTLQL
UniProt Q9Y5J1: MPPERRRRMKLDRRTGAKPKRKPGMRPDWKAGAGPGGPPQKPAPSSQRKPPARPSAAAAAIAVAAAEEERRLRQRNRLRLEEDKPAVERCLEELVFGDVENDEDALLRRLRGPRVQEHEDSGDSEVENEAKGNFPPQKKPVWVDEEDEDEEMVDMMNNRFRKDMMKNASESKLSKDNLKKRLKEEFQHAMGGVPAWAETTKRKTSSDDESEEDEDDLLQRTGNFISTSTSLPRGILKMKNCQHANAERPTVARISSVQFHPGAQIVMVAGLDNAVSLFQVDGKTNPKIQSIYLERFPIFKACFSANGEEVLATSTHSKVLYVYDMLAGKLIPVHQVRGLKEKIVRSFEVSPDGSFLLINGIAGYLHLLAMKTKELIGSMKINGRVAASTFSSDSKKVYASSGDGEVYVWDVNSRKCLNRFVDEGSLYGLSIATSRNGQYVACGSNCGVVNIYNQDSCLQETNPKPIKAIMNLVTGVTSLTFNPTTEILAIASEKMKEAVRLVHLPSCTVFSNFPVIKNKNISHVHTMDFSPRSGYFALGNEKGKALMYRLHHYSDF
UniProt Q9Y692: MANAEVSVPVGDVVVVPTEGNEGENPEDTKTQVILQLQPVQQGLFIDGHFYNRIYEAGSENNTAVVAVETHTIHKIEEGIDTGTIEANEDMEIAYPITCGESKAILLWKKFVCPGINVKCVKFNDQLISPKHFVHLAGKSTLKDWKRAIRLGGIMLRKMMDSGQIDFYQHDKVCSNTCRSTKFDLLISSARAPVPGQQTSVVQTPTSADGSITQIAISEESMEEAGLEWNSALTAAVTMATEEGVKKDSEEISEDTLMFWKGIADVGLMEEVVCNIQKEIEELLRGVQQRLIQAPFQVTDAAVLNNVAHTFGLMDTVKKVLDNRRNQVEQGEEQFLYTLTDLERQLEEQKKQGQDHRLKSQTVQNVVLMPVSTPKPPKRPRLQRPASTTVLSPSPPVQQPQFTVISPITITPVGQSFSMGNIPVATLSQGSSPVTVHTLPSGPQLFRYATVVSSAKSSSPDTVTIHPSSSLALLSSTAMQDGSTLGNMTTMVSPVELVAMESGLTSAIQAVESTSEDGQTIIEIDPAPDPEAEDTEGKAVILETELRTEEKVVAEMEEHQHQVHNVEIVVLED
UniProt Q9Y4A5, whole entry: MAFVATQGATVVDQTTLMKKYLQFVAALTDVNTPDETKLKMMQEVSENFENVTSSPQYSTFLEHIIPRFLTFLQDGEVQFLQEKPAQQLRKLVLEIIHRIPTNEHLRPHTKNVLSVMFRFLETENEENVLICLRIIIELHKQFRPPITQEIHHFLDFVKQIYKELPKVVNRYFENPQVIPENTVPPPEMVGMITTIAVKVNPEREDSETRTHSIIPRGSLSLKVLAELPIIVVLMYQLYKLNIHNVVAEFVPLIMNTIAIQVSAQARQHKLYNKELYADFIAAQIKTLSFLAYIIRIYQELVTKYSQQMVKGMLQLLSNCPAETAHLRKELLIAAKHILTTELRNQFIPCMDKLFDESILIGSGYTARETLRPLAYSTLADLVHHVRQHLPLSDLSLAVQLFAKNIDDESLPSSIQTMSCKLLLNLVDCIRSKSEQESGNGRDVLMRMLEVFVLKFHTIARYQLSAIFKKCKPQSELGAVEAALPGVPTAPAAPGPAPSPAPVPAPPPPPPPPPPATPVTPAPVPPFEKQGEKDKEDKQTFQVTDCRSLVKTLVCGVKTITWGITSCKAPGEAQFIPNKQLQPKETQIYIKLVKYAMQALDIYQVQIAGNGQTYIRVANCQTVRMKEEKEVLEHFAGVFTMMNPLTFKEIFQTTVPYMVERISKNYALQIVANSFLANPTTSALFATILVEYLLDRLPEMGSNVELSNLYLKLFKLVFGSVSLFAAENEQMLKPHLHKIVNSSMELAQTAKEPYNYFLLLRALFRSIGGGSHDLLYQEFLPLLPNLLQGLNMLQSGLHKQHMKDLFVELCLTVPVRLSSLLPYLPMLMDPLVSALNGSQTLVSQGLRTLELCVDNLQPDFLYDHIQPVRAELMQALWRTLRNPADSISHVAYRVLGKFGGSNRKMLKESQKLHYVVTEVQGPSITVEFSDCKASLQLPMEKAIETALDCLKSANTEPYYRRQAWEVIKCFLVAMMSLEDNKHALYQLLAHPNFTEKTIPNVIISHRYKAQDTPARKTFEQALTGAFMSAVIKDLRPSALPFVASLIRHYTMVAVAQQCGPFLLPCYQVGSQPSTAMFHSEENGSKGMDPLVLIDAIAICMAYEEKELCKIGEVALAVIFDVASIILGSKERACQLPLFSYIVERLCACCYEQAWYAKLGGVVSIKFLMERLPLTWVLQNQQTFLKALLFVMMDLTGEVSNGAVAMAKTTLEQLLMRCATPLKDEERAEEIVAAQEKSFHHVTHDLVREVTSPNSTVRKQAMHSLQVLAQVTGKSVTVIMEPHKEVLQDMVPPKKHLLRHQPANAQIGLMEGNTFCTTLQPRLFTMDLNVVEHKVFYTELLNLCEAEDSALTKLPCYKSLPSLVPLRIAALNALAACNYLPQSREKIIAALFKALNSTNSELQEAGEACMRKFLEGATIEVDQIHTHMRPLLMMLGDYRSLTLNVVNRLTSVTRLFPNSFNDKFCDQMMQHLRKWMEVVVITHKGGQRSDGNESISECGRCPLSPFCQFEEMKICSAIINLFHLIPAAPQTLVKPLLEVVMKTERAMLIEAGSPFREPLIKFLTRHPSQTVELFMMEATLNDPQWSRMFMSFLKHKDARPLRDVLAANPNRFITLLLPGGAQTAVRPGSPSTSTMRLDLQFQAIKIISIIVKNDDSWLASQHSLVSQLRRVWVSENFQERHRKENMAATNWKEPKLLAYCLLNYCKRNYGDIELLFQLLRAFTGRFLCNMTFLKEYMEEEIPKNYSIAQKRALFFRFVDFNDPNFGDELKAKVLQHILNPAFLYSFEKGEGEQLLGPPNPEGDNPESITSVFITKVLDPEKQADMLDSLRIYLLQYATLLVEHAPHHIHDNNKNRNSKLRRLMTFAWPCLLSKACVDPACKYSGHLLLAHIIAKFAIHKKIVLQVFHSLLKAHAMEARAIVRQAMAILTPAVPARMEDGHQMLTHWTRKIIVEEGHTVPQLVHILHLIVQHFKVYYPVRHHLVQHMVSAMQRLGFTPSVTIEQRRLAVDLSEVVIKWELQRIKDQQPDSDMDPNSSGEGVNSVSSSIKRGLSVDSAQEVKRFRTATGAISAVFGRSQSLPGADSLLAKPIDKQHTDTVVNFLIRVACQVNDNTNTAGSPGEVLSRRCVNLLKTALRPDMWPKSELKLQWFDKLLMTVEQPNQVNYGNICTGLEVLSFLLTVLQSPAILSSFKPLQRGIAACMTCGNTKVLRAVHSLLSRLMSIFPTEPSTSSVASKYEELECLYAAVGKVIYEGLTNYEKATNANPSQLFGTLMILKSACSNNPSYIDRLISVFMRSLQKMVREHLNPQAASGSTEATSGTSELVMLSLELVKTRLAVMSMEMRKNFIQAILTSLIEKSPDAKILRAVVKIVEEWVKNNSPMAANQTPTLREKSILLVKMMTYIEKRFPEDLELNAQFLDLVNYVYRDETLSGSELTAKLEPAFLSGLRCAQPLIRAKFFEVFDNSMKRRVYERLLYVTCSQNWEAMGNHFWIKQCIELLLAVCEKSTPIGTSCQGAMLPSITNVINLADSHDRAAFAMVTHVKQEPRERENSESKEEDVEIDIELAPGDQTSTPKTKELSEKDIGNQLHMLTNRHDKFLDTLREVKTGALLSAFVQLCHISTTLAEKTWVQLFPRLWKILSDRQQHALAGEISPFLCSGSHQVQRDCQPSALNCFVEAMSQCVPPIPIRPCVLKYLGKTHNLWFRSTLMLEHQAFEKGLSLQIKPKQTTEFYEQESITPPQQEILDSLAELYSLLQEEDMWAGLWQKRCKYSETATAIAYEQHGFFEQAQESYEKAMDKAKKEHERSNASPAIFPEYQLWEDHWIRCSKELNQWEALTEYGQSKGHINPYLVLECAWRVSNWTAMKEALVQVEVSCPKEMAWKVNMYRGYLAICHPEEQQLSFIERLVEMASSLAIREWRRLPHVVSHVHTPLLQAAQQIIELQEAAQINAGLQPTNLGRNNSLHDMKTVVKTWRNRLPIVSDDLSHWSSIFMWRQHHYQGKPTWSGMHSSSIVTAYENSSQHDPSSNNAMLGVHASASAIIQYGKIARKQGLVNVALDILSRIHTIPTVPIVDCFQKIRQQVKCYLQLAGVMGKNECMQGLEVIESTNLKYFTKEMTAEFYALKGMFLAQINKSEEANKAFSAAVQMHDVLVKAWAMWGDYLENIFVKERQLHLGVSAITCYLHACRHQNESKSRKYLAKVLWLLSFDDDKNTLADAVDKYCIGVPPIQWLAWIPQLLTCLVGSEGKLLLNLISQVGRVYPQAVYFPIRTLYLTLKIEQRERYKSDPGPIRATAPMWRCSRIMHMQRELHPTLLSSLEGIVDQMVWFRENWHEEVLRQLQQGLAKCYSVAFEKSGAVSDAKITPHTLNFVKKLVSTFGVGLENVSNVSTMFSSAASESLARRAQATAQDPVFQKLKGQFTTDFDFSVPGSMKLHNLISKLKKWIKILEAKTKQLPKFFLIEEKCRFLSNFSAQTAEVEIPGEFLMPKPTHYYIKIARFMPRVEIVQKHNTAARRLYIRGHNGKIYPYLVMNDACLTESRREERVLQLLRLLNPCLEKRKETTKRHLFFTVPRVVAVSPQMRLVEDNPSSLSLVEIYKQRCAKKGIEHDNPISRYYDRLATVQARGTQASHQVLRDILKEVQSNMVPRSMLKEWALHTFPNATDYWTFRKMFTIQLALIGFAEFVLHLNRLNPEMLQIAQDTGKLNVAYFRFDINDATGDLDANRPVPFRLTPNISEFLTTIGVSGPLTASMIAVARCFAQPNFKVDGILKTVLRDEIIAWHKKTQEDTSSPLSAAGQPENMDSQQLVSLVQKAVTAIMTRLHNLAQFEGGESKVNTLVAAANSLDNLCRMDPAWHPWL

Some of the results follow. Most entries show no effect beyond the scatter of the controls.

Compound in the test: CN[C@@H]1C[C@H]2O[C@@](C)([C@@H]1OC)n1c3ccccc3c3c4c(c5c6ccccc6n2c5c31)C(=O)NC4 [staurosporine]
The experiment in a line: log2 fold change of tryptic peptide abundance, ligand vs vehicle (limited proteolysis) (log2 ratio); higher = more trypsin-susceptible (destabilized). As to conditions: ligand concentration: 20 uM; sample: K562 cleared lysate; digestion: 4 min, 22 C (HT-PELSA RT4min, Orbitrap Astral).
As to “NDUFB9 (peptide sequence: AMYPDYFAK, peptide start residue: 113) (UniProt Q9Y6M9)”, the log2 fold change was -0.0786.
Under “PKP3 (peptide sequence: LLQLGQQPR, peptide start residue: 54) (UniProt Q9Y446)” stands 0.108.
Under “UniProt Q9Y3I0 (peptide sequence: DKIIVNDR, peptide start residue: 284)” stands 0.199; under “SALL2 (peptide sequence: QAFFHLYHPLGSQHPFSAGGVGR, peptide start residue: 272) (UniProt Q9Y467)”, -0.234; under “TESMIN (peptide sequence: EPVLHAFNPALGADCK, peptide start residue: 61) (UniProt Q9Y4I5)”, -0.295.
Take “AK6 (peptide sequence: WIEQWIK, peptide start residue: 162) (UniProt Q9Y3D8)”: the log2 fold change was -0.128.
As to “USP3 (peptide sequence: KLLENSTLNSK, peptide start residue: 135) (UniProt Q9Y6I4)”, the log2 fold change was -0.237.
Take “ARFGEF2 (peptide sequence: ALMEAVSHAK, peptide start residue: 869) (UniProt Q9Y6D5)”: the log2 fold change is 0.226.
In the case of “TIMM9 (peptide sequence: LTETCFLDCVKDFTTR, peptide start residue: 24) (UniProt Q9Y5J7)” it was 0.0667.
“RBM19 (peptide sequence: ELFSTFGELK, peptide start residue: 850) (UniProt Q9Y4C8)”: the log2 fold change is -0.304.
Under “USP16 (peptide sequence: QMLISLAPPVLTLHLKR, peptide start residue: 683) (UniProt Q9Y5T5)” stands -0.249; under “IPP (peptide sequence: YIEGVSDFNLR, peptide start residue: 239) (UniProt Q9Y573)”, 0.116; under “UniProt Q9Y4F4 (peptide sequence: KPHATEQK, peptide start residue: 1642)”, 0.157.
“UniProt Q9Y4D8 (peptide sequence: AILSCGYDLHFER, peptide start residue: 3431)”: the log2 fold change is -0.728.
Turning to “MRPS18B (peptide sequence: RLYQGHLQEESGPPPESMPK, peptide start residue: 218) (UniProt Q9Y676)”, the log2 fold change is -0.52.
Under “GOLT1B (peptide sequence: RVPVLGSLLNLPGIR, peptide start residue: 111) (UniProt Q9Y3E0)” stands 0.231; under “LSM4 (peptide sequence: IPDEIIDMVKEEVVAK, peptide start residue: 71) (UniProt Q9Y4Z0)”, 0.175.
Under “UniProt Q9Y6X2 (peptide sequence: VSELQVLLGFAGR, peptide start residue: 16)” stands -0.386; under “UTP18 (peptide sequence: VAASTFSSDSK, peptide start residue: 385) (UniProt Q9Y5J1)”, 0.688; under “GMEB1 (peptide sequence: AVILETELR, peptide start residue: 539) (UniProt Q9Y692)”, -0.0824.
In the case of “NUB1 (peptide sequence: GTGNDNYR, peptide start residue: 71) (UniProt Q9Y5A7)”, the log2 fold change was -0.382.
In the case of “AK5 (peptide sequence: GFLIDGYPR, peptide start residue: 89) (UniProt Q9Y6K8)”, the log2 fold change worked out at 0.0244.
In the case of “R3HCC1 (peptide sequence: DLAHVVEIYDFEPALK, peptide start residue: 315) (UniProt Q9Y3T6)”, the log2 fold change amounted to 0.22.
In the case of “TRRAP (peptide sequence: LLLNLVDCIR, peptide start residue: 422) (UniProt Q9Y4A5)” it was -0.534.
In the case of “PPIL1 (peptide sequence: VGMVETNSQDRPVDDVK, peptide start residue: 142) (UniProt Q9Y3C6)” it was -0.609; in that of “PLEKHM1 (peptide sequence: SWISEDDFYRPSR, peptide start residue: 440) (UniProt Q9Y4G2)”, -0.129; in that of “SNX14 (peptide sequence: LFNDLFK, peptide start residue: 757) (UniProt Q9Y5W7)”, 0.322.
Consider “HBS1L (peptide sequence: QLLNLVVIGHVDAGK, peptide start residue: 259) (UniProt Q9Y450)”, for which the log2 fold change is -0.519.
Consider “UniProt Q9Y520 (peptide sequence: TVNQQTMAAPVVK, peptide start residue: 1121)”, for which the log2 fold change is 0.404.
Turning to “IVNS1ABP (peptide sequence: LQVCGHEMLAHR, peptide start residue: 36) (UniProt Q9Y6Y0)”, the log2 fold change was determined as 0.313.
In the case of “TELO2 (peptide sequence: FNSVAGHFFFPLLQR, peptide start residue: 692) (UniProt Q9Y4R8)” it was -0.127; in that of “SNX9 (peptide sequence: RCTGPLPK, peptide start residue: 426) (UniProt Q9Y5X1)”, 0.385; in that of “MTCL1 (peptide sequence: LGELGSSAESK, peptide start residue: 1196) (UniProt Q9Y4B5)”, -0.581.
In the case of “UBIAD1 (peptide sequence: INILSGETVK, peptide start residue: 11) (UniProt Q9Y5Z9)” it was 0.34.
In the case of “RBM7 (peptide sequence: YTDHGSDHHYR, peptide start residue: 219) (UniProt Q9Y580)” it was -0.302; in that of “MSRB2 (peptide sequence: LTPEQFYVTR, peptide start residue: 58) (UniProt Q9Y3D2)”, -0.101.
Consider “AFG3L2 (peptide sequence: VALLLLEK, peptide start residue: 726) (UniProt Q9Y4W6)”, for which the log2 fold change came out at 0.289.
“LRRC42 (peptide sequence: YLVISEKLEEIK, peptide start residue: 159) (UniProt Q9Y546)”: the log2 fold change came to 0.666.
Under “PRSS21 (peptide sequence: LSAPVTYTK, peptide start residue: 143) (UniProt Q9Y6M0)” stands -0.111.
